Results are given in words; binding and its absence hold for the method and conditions named. In cells and extracts the contact can be indirect. Some entries that bind do so weakly or less than the wild type. Where a sequence is shown, tags or fusion partners need not be part of it.
Experiments:
[1] = biological target: T1, AtPSKR1-GFP (PHYTOSULFOKINE RECEPTOR 1), stably expressed in Arabidopsis (Arabidopsis) (UniProt Q9ZVR7); assay: co-IP; Arabidopsis plants stably expressing p35S::AtPSKR1-GFP, infiltrated with recombinant SCP8 (1 µM, 5-30 min) or PSK (1 µM, positive control); RIPA buffer; GFP-trap agarose beads; blots with anti-GFP and anti-BAK1
T1 sequence: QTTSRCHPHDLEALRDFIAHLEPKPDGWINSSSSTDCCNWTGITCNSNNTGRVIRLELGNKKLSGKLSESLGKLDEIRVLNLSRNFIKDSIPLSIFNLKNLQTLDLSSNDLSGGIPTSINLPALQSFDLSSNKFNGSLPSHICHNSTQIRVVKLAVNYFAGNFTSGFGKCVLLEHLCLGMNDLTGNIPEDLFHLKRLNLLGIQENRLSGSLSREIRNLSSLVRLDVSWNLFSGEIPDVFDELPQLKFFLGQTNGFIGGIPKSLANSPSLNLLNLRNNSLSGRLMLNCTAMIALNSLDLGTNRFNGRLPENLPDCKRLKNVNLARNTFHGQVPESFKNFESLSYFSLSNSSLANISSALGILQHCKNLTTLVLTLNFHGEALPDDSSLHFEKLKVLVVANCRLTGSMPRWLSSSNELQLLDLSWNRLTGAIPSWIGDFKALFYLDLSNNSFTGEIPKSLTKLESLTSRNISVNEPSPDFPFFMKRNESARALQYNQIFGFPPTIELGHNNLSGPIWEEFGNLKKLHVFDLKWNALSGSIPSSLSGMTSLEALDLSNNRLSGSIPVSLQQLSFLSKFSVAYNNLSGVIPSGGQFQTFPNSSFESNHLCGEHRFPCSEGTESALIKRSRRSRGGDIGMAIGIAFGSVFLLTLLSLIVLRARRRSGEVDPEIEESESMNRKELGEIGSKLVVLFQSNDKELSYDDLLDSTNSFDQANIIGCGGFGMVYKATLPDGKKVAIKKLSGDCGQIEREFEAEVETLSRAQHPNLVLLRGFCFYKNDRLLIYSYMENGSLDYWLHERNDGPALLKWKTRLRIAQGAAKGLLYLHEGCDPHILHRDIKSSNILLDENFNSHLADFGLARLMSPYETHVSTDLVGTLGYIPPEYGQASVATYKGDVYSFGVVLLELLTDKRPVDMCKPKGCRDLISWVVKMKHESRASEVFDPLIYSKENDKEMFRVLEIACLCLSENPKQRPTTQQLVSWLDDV

[2] = biological target: T2, AtPSKR1-GFP, transiently expressed in N. benthamiana (Arabidopsis) (UniProt Q9ZVR7); assay: co-IP; N. benthamiana leaves transiently co-expressing p35S::AtPSKR1-GFP and p35S::AtBAK1-myc, treated with SCP8 (Supplementary Fig. 8)
T2 sequence: T1 sequence

B1: AtBAK1, endogenous in Arabidopsis (receptor, UniProt Q94F62 26-615)
chain: NAEGDALSALKNSLADPNKVLQSWDATLVTPCTWFHVTCNSDNSVTRVDLGNANLSGQLVMQLGQLPNLQYLELYSNNITGTIPEQLGNLTELVSLDLYLNNLSGPIPSTLGRLKKLRFLRLNNNSLSGEIPRSLTAVLTLQVLDLSNNPLTGDIPVNGSFSLFTPISFANTKLTPLPASPPPPISPTPPSPAGSNRITGAIAGGVAAGAALLFAVPAIALAWWRRKKPQDHFFDVPAEEDPEVHLGQLKRFSLRELQVASDNFSNKNILGRGGFGKVYKGRLADGTLVAVKRLKEERTQGGELQFQTEVEMISMAVHRNLLRLRGFCMTPTERLLVYPYMANGSVASCLRERPESQPPLDWPKRQRIALGSARGLAYLHDHCDPKIIHRDVKAANILLDEEFEAVVGDFGLAKLMDYKDTHVTTAVRGTIGHIAPEYLSTGKSSEKTDVFGYGVMLLELITGQRAFDLARLANDDDVMLLDWVKGLLKEKKLEALVDVDLQGNYKDEEVEQLIQVALLCTQSSPMERPKMSEVVRMLEGDGLAERWEEWQKEEMFRQDFNYPTHHPAVSGWIIGDSTSQIENEYPSGPR
binding [1]: binds

B2: AtBAK1-myc, transiently expressed in N. benthamiana (receptor, UniProt Q94F62 26-615)
chain: B1 chain
binding [2]: binds

From publication PMC12618502
